Laboratory results reported in PubChem BioAssay AID2685 (National Center for Advancing Translational Sciences (NCATS), 2010).
This is one part of the list. The main result of the screen is listed elsewhere. These columns were measured beside it and carry no call. The list favours compounds with an active or inconclusive main result. Potencies come from curve fits of mixed quality, noted in brackets.

Experiment: qHTS Assay for Lipid Storage Modulators in Drosophila S3 Cells;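 for cell number change: cells counted by Cell Tracker Red CMTPX staining in the red channel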
Details: BODIPY lipid droplet fluorescence, 18-24 h; for cell number change: measured here: cell count max response, cells fed with added oleic acid
Procedure, shortened: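 Drosophila S3 cells got compounds at several concentrations plus oleic acid (400 uM solution). Laser-scanning cytometry with 488 nm excitation read lipid droplets at 500-530 nm and cells at 575-640 nm. Percent activity was relative to 20 uM Triacsin C.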

[1] = measured here: cell number channel AC50, cells fed with added oleic acid
[2] = measured here: lipid fluorescence (Fed channel) AC50, cells fed with added oleic acid

**Q.** For Cn1c(SCc2nc(-c3cccs3)no2)nnc1C1CCCCC1, which cell number change is on record?
**A.** 88.2%

**Q.** What about the AC50 [1] of the same molecule?
**A.** 20.6 µM [rising, single point]

**Q.** And the AC50 [2]?
**A.** 18.4 µM [rising, single point]

**Q.** With O=C(NCc1ccccc1CN1CCCC1)c1ccc(Cl)c(N2CCCC2=O)c1 as the molecule, how does the cell number change read?
**A.** 26.9%

**Q.** What about the AC50 [2] of the same molecule?
**A.** 0.58 µM [rising, full curve]

**Q.** Which cell number change does the source give for CCCc1nc(N2CCOCC2)c(C#N)c2c1CCCC2 here?
**A.** 52.9%

**Q.** What about the AC50 [1] of the same molecule?
**A.** 29.1 µM [rising, single point]

**Q.** For COc1cc(OC)nc(NC(=O)NS(=O)(=O)c2ccc(OC(F)(F)F)cc2)n1, which cell number change is on record?
**A.** -15.1%

**Q.** And the AC50 [2]?
**A.** 11.6 µM [falling, partial curve, poor fit]

**Q.** For Cc1ccc(C2=NN(S(C)(=O)=O)C(c3ccc4c(c3)OCO4)C2)cc1 (stereo unspecified), which cell number change is on record?
**A.** 5.16%

**Q.** What about the AC50 [2] of the same molecule?
**A.** 1.16 µM [rising, partial curve]

**Q.** Which cell number change does the source give for Cc1nn(C)cc1[C@@H]1C[C@H]2CN(Cc3cccc(Cl)c3)C(=O)[C@]23CCCN13 here?
**A.** 12.2%

**Q.** What does the source list for CCOCCOCCC(C(=O)OCC)P(=O)(c1ccccc1)c1ccccc1 (stereo unspecified)?
**A.** cell number change: -113%; AC50 [1]: 0.164 µM [falling, full curve, poor fit]; AC50 [2]: 0.651 µM [falling, single point]

**Q.** For COc1ccc(-c2nc(CS(=O)CC(=O)N3CCc4ccccc4C3)c(C)o2)cc1 (stereo unspecified), which cell number change is on record?
**A.** 25.7%

**Q.** What about the AC50 [1] of the same molecule?
**A.** 6.51 µM [rising, single point]

**Q.** What about the AC50 [2] of the same molecule?
**A.** 8.2 µM [rising, partial curve, poor fit]

**Q.** Which cell number change does the source give for Cc1ccccc1NC(=O)Cc1nc(-c2c[nH]c(C(=O)N3CCCC3)c2)cs1 here?
**A.** 42.2%

**Q.** And the AC50 [1]?
**A.** 16.4 µM [rising, partial curve, poor fit]

**Q.** And the AC50 [2]?
**A.** 7.31 µM [rising, partial curve, poor fit]

**Q.** For COC(=O)CSc1nnc(CNC(=O)c2ccccc2OC)n1C, which cell number change is on record?
**A.** -25.7%

**Q.** What about the AC50 [1] of the same molecule?
**A.** 0.92 µM [falling, full curve, poor fit]

**Q.** For Cc1ccc(Cl)cc1N(C(=O)c1csnn1)C(C(=O)NC1CCCC1)c1ccco1 (stereo unspecified), which cell number change is on record?
**A.** 20.6%

**Q.** What about the AC50 [2] of the same molecule?
**A.** 0.206 µM [falling, single point]

**Q.** With CCCS(=O)(=O)c1c(S(=O)(=O)CCC)c2cnccn2c1C(=O)c1ccc(Cl)cc1 as the molecule, how does the AC50 [1] read?
**A.** 1.3 µM [falling, full curve]

**Q.** And the AC50 [2]?
**A.** 6.51 µM [falling, single point]

**Q.** Which cell number change does the source give for Cc1cc(C(=O)Nc2ccc(F)cc2C)n(-c2ccccc2)n1 here?
**A.** 67.3%

**Q.** And the AC50 [1]?
**A.** 0.082 µM [rising, full curve]

**Q.** And the AC50 [2]?
**A.** 0.092 µM [rising, full curve]

**Q.** Which AC50 [2] does the source give for CCCn1c(=O)c(C(=O)NCc2ccc(OC)c(OC)c2)c(O)c2ccccc21 here?
**A.** 9.2 µM [rising, partial curve, poor fit]

**Q.** Which cell number change does the source give for COc1ccc(S(=O)(=O)N2CCN(CCCOc3ccc(F)cc3)CC2)cc1OC here?
**A.** 29.5%

**Q.** What about the AC50 [2] of the same molecule?
**A.** 2.06 µM [rising, partial curve, poor fit]

**Q.** What does the source list for Cc1cc2cc(CN(CCN3CCOCC3)C(=O)Nc3ccccc3F)c(=O)[nH]c2cc1C?
**A.** cell number change: -3.66%; AC50 [2]: 0.651 µM [rising, full curve, poor fit]

**Q.** Which results are given for C=CCN=C1N[C@@H](c2ccccc2)C(C(=O)OC)=C(C)N1CC?
**A.** cell number change: 6.17%; AC50 [2]: 29.1 µM [rising, single point]

**Q.** With Cc1cccn2c(=O)c3cc(C(=O)NC4CCCC4)c(=N)n(C4CCCCC4)c3nc12 as the molecule, how does the cell number change read?
**A.** 5.13%

**Q.** And the AC50 [2]?
**A.** 5.17 µM [falling, single point]

**Q.** For O=C(c1ccco1)N1N=C2CCCCCC2C1(O)C(F)(F)F (stereo unspecified), which cell number change is on record?
**A.** -39.7%

**Q.** What about the AC50 [1] of the same molecule?
**A.** 8.2 µM [falling, partial curve]

**Q.** And the AC50 [2]?
**A.** 4.61 µM [falling, full curve]

**Q.** With COc1cccc(C(=O)Nc2cccc(C(=O)NCC(C)C)c2)c1 as the molecule, how does the cell number change read?
**A.** -4.4%

**Q.** And the AC50 [1]?
**A.** 0.13 µM [falling, full curve, poor fit]

**Q.** For Cc1cc(C)c(C#N)c(SCC(=O)c2cc(C)n(CCc3ccccc3)c2C)n1, which AC50 [1] is on record?
**A.** 0.82 µM [rising, single point]

**Q.** Which cell number change does the source give for COc1ccc(-c2csc(N(C)C(=O)c3ccco3)n2)cc1 here?
**A.** -6.2%

**Q.** What about the AC50 [2] of the same molecule?
**A.** 0.13 µM [falling, full curve, poor fit]

**Q.** Which results are given for CCn1c(SCC(=O)Nc2cccc(NC(=O)c3ccco3)c2)nnc1-c1cccs1?
**A.** cell number change: 22.7%; AC50 [2]: 1.46 µM [rising, partial curve]

**Q.** With COC(=O)C(C)Sc1nc2c(cnn2-c2ccc(C)cc2)c(=O)[nH]1 (stereo unspecified) as the molecule, how does the cell number change read?
**A.** 7.76%

**Q.** For CCOc1ccc(NC(=O)CCc2nnc3ccc(N4CCC5(CC4)OCCO5)nn23)cc1, which cell number change is on record?
**A.** -9.48%

**Q.** What about the AC50 [2] of the same molecule?
**A.** 0.00461 µM [rising, full curve, poor fit]

**Q.** For CC(C)CC(c1nnnn1C1CCCC1)N1CCC(C(N)=O)CC1 (stereo unspecified), which cell number change is on record?
**A.** 41.6%

**Q.** What about the AC50 [1] of the same molecule?
**A.** 29.1 µM [rising, single point]

**Q.** For CCOc1ccc(CCNC(=O)c2ccc(N3CCCC3=O)cc2)cc1OCC, which cell number change is on record?
**A.** 13.6%

**Q.** For Cc1c(C(=O)N2CCN(c3ccccc3)CC2)sc2nc3n(c(=O)c12)CCC3, which cell number change is on record?
**A.** 6.57%
